Assay [1] concerns the target HPV16 E6 (human papillomavirus type 16 (HPV16)) (UniProt P03126). Nature of the assay: co-immunoprecipitation (anti-E6 IP, anti-V5 blot) from lysates of UMSCC47/CH1 and SCC90/CH1 cells.
Assay [2] deals with p300 (UniProt Q09472). Nature of the assay: co-immunoprecipitation (anti-p300 IP, anti-E6 blot) from UMSCC47 lysates.
In assay [3] the target is p300 (UniProt Q09472). Kind of assay: co-immunoprecipitation with anti-E6 or anti-p300 antibody, immunoblot with anti-V5, anti-E6 or anti-p300. (In western blotting, separated proteins are transferred to a membrane and probed.)

Sequences of proteins named here, by UniProt entry; tags and fusion partners are left off. A change or cut given only in a name is not applied to a line headed by its entry.
UniProt P03126: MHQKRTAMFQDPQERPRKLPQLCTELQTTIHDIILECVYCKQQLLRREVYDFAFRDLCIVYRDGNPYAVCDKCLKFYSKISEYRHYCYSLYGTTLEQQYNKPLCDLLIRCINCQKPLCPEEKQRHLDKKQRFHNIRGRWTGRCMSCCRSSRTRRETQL
UniProt Q09472: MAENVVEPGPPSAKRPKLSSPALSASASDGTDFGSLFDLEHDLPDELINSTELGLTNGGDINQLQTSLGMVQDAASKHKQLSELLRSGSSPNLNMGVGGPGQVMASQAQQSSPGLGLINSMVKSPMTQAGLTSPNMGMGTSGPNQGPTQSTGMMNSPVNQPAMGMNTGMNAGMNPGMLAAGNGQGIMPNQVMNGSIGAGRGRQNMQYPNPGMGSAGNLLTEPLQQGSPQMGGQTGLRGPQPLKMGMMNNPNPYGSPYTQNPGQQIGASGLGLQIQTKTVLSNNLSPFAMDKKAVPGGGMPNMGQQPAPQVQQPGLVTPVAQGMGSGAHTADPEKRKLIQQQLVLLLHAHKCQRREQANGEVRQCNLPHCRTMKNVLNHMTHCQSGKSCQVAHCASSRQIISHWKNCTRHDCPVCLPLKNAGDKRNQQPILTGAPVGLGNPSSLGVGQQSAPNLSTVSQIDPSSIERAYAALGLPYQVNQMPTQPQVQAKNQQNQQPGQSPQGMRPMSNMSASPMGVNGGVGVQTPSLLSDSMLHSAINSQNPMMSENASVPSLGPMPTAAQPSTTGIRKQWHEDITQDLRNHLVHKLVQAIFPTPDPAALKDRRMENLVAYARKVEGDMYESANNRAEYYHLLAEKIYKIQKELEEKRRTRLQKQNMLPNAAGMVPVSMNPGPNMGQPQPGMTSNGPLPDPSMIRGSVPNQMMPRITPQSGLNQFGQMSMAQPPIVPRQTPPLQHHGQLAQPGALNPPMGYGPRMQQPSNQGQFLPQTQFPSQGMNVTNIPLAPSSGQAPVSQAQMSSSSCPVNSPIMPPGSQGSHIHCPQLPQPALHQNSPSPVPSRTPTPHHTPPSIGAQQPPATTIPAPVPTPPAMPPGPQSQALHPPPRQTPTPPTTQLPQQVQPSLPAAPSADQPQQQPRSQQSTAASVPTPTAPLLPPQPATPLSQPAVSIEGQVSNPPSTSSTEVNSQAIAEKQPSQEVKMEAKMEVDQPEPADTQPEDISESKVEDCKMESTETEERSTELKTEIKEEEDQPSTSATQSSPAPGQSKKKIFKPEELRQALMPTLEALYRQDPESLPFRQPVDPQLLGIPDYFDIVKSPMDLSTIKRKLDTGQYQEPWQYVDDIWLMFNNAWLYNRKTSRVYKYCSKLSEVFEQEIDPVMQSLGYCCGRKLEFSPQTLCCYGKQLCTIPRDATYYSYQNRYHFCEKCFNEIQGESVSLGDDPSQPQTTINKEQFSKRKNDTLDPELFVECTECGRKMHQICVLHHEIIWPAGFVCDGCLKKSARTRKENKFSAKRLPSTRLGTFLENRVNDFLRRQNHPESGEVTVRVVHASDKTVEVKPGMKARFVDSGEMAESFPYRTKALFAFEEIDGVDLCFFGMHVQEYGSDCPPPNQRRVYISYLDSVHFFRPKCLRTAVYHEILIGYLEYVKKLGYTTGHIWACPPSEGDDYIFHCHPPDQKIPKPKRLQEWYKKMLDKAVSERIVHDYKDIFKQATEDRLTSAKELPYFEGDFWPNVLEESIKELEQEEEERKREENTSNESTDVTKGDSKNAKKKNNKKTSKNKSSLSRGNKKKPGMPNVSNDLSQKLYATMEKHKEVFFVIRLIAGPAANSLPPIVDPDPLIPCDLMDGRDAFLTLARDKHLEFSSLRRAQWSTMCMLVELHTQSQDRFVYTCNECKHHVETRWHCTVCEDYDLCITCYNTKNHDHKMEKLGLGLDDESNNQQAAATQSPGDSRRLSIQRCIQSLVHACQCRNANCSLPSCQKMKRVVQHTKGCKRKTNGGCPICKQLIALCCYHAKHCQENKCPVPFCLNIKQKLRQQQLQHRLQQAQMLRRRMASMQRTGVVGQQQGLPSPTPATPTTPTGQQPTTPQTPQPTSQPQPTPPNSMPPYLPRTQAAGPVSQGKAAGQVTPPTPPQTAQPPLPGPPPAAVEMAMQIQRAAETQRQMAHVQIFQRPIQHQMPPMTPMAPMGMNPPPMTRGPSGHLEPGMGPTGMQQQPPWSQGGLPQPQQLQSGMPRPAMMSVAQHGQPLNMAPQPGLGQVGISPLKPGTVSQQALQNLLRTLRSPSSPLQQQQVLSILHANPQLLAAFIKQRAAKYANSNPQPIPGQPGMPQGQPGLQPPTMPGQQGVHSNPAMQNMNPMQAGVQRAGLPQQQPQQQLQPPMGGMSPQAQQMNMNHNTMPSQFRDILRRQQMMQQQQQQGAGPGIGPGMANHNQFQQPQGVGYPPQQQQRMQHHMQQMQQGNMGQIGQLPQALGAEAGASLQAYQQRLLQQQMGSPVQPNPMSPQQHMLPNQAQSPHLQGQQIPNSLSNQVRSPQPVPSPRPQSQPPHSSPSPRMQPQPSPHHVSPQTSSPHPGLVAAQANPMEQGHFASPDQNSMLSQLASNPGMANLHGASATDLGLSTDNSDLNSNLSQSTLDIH

Two substances from patent publication US20140205681A1, “HYDROGEN-BOND SURROGATE PEPTIDES AND PEPTIDOMIMETICS FOR p53 REACTIVATION” (New York University, priority 2013, published 2014) can be followed below.

Results are given in words; binding and its absence hold for the method and conditions named. In cells and extracts the contact can be indirect. Some binding calls cover weakened binding; strength is not graded here.

In the case of “exogenous CH1 domain of p300 (pcDNA3.1/CH1) (from UniProt Q09472 332-417)”, in assay [1], the binding result is “binds”.

Consider HPV16 E6 (from UniProt P03126 1-158), for which the binding entry with p300 [2] and in the assay with p300 [3] was “binds” throughout.
